No constants are given. Whether binding was seen depends on the method and setting. Binding seen in cells or lysates may run through a third protein. Some entries that bind do so weakly or less than the wild type. For some assays here: Tags and fused reporters may be left off the sequences shown.
B1: V5-tagged FBXL12 (protein, UniProt Q9NXK8 1-326)
chain: MATLVELPDSVLLEIFSYLPVRDRIRISRVCHRWKRLVDDRWLWRHVDLTLYTMRPKVMWHLLRRYMASRLHSLRMGGYLFSGSQAPQLSPALLRALGQKCPNLKRLCLHVADLSMVPITSLPSTLRTLELHSCEISMAWLHKQQDPTVLPLLECIVLDRVPAFRDEHLQGLTRFRALRSLVLGGTYRVTETGLDAGLQELSYLQRLEVLGCTLSADSTLLAISRHLRDVRKIRLTVRGLSAPGLAVLEGMPALESLCLQGPLVTPEMPSPTEILSSCLTMPKLRVLELQGLGWEGQEAEKILCKGLPHCMVIVRACPKESMDWWM

Chains of the proteins cited; added tags and fusions are not shown. Lines headed by an entry give the natural chain unless they say otherwise; changes in a name come on top. A line that says so, or that is headed by a name, gives the form on record, which may keep a tag or linker.
UniProt P24385: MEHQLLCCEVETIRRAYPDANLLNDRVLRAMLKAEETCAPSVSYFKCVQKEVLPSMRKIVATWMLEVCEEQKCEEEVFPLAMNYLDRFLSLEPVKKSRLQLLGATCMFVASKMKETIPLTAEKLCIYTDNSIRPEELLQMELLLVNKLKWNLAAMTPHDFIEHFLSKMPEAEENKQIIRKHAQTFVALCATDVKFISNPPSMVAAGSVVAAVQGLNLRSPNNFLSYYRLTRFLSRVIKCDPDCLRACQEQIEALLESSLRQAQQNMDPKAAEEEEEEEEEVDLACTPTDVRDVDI
HA-tagged ΔD cyclin D1 (complete deletion of the D-domain) (P24385, form named): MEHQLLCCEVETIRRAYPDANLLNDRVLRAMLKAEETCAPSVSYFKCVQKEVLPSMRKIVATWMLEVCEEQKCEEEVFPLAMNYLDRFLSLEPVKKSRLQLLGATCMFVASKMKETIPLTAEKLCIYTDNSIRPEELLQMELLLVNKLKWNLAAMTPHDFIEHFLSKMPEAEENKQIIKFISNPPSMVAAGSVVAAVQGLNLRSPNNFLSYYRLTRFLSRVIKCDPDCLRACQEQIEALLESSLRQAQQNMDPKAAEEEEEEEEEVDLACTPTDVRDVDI
UniProt Q14999: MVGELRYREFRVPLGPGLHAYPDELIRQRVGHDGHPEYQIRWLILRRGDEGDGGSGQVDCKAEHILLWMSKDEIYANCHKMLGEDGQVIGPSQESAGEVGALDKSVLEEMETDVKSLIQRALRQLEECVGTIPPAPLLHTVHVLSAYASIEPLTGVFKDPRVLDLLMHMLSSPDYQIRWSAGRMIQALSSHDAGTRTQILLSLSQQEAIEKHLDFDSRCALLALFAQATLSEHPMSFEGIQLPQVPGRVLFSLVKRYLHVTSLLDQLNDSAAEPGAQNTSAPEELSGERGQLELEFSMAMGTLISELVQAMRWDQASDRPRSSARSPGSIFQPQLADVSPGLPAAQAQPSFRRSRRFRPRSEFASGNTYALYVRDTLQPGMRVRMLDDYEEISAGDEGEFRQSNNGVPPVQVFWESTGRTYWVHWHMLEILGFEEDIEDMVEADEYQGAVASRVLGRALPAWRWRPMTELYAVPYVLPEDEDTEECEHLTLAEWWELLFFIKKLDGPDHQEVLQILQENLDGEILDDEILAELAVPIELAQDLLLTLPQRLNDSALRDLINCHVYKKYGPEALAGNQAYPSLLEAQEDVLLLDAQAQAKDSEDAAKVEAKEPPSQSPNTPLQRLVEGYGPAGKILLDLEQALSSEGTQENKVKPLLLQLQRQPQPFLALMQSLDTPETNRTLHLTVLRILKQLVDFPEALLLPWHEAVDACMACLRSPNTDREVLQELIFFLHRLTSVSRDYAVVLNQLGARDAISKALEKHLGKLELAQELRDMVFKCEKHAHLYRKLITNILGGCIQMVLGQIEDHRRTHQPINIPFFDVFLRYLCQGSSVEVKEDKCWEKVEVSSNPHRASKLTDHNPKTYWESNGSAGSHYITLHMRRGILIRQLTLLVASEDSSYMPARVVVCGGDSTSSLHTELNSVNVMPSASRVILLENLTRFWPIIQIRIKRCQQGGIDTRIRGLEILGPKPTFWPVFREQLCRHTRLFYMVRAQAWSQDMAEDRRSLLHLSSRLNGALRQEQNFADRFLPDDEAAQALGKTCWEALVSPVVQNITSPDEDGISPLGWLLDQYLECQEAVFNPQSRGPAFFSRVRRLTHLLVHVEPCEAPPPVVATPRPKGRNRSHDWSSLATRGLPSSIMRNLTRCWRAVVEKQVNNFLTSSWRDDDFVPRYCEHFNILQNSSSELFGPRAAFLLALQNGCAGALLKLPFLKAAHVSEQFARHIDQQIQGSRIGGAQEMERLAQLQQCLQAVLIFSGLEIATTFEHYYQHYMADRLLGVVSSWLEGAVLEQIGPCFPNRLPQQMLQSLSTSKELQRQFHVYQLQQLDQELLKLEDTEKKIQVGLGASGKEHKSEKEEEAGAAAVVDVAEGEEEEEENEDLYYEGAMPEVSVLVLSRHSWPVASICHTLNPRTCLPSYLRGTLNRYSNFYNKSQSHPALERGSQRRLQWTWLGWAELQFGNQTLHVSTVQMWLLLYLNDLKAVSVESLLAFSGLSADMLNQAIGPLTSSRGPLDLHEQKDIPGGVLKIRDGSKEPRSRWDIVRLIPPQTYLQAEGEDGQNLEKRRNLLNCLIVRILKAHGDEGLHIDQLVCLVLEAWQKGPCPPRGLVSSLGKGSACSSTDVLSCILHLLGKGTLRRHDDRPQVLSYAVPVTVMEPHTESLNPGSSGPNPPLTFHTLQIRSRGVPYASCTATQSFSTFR
UniProt P28482: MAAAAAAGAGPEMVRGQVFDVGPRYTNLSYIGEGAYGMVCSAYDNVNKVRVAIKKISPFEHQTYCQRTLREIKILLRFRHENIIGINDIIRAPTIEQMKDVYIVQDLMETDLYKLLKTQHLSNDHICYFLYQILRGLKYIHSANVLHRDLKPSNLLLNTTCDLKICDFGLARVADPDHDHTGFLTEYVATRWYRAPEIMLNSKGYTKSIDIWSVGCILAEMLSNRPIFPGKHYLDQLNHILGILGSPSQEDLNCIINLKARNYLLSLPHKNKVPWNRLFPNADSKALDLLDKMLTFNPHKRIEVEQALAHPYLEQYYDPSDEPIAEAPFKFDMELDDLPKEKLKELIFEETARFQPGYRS
UniProt P63208: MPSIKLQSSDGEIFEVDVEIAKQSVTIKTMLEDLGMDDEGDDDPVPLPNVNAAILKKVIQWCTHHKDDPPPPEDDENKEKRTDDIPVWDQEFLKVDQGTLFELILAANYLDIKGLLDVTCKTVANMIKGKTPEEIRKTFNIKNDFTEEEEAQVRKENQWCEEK

Assays:
[1] = molecular target: cyclin D1 (endogenous) (human (endogenous in HCT 116 and T98G)) (UniProt P24385); assay: co-IP; lysate of exponentially growing HCT 116 cells precipitated with antibodies to cyclin D1 or IgG; blotted for cyclin D1, CDK4, SKP1, CUL1 and CUL7
[2] = molecular target: T1, Flag-tagged WT FBXW8 (human) (UniProt Q8N3Y1); assay: co-IP; T98G cells transfected with empty, Flag-tagged WT FBXW8 or ΔF FBXW8 plasmid; precipitated with Flag antibody; blotted for cyclin D1, SKP1, CUL1, CUL7, RBX1 and Flag
T1 sequence: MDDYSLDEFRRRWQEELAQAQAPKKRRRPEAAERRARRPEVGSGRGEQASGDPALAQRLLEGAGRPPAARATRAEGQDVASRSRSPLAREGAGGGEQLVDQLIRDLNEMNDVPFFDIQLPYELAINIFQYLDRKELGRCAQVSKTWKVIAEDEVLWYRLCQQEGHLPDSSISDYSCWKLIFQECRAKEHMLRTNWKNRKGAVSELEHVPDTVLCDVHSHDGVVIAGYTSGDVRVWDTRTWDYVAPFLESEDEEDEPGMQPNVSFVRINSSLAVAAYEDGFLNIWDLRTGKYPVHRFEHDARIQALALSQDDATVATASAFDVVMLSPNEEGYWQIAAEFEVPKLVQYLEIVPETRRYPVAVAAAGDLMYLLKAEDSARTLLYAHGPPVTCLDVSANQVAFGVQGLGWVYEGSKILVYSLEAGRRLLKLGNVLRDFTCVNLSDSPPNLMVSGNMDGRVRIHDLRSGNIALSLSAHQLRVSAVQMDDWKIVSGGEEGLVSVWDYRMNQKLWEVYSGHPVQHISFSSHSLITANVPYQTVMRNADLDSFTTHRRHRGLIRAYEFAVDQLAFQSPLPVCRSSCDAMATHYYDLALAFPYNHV

[3] = molecular target: HA-tagged ΔD cyclin D1 (complete deletion of the D-domain) (human) (UniProt P24385); assay: co-IP; IP-IB after ectopic expression of Flag-tagged ERK2 with HA-tagged WT or ΔD cyclin D1 in HCT 116 cells; which tag was precipitated is not told
[4] = molecular target: HA-tagged wild type cyclin D1 (human) (UniProt P24385); assay: as above
[5] = molecular target: HA-tagged wild type cyclin D1 (human) (UniProt P24385); assay: co-IP; T98G cells transfected with V5- or Flag-tagged F-box proteins, HA-tagged cyclin D1 (WT or T286A) and CDK4; collected after 24 hrs; precipitated with HA antibody; blotted with V5 or Flag
[6] = molecular target: HA-tagged cyclin D1 T286A mutant (human) (UniProt P24385); assay: as above

Row | Molecule | binding [1] | binding [2] | other results
1 | Cullin 7 (CUL7), endogenous (from UniProt Q14999 1-1698) | binds | binds | –
2 | Flag-tagged ERK2 (from UniProt P28482 1-360) (enzyme) | – | – | binding [3]: binds weakly; binding [4]: binds
3 | S-phase Kinase-associated Protein 1 (SKP1), endogenous (from UniProt P63208 1-163) | binds | binds | –
4 | B1 | – | – | binding [5]: binds; binding [6]: binds
